Laboratory results: paper PMC11111408, “Concurrent inhibition of oncogenic and wild-type RAS-GTP for cancer therapy” (Nature, 2024)
Where “and” joins values, the source holds several entries; their conditions need not be identical. Equal values may be shown once. The source gives many values for each of these; only a part stands here.

Assays:
[1] = Body weight and tolerability of tumour bearing mice; conditions: RMC-7977 10 mg/kg po qd, individual animals, 10 mg/kg
[2] = target: T1, KRAS–PI3Kα (Homo sapiens, UniProt P01116, G12C); assay: Cellular nano-BRET, full length PI3Kα binding to KRAS G12C, G12D, G12V; format: cell-based; conditions: KRAS G12C, in the presence of CYPA, single replicates;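 also: U2OS cells expressing KRAS4B mutants carrying N-terminal nanoluciferase or HaloTag fusions, with nano-BRET signal measured after inhibitor exposure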
T1 construct: expressed in transfected cells; host or cells: U2OS

[3] = target: T2, KRAS–PI3Kα (Homo sapiens, UniProt P01116, G12D); assay: as above; format: cell-based; conditions: KRAS G12D, in the presence of CYPA, single replicates
T2 construct: expressed in transfected cells; host or cells: U2OS

[4] = target: T3, KRAS–PI3Kα (Homo sapiens, UniProt P01116, G12V); assay: as above; format: cell-based; conditions: KRAS G12V, in the presence of CYPA, single replicates
T3 construct: expressed in transfected cells; host or cells: U2OS

[5] = target: T4, KRAS–RALGDS (Homo sapiens, UniProt P01116, G12C); assay: Cellular nano-BRET, full length RALGDS binding to KRAS G12C, G12D, G12V; format: cell-based; conditions: KRAS G12C, in the presence of CYPA, single replicates
T4 construct: expressed in transfected cells; host or cells: U2OS

[6] = target: T5, KRAS–RALGDS (Homo sapiens, UniProt P01116, G12V); assay: as above; format: cell-based; conditions: KRAS G12V, in the presence of CYPA, single replicates
T5 construct: expressed in transfected cells; host or cells: U2OS

[7] = target: T6, KRAS–RALGDS (Homo sapiens, UniProt P01116, G12D); assay: as above; format: cell-based; conditions: KRAS G12D, in the presence of CYPA, single replicates
T6 construct: expressed in transfected cells; host or cells: U2OS

## CCn1c(-c2cc(N3CCN(C4CC4)CC3)cnc2[C@H](C)OC)c2c3cc(ccc31)-c1csc(n1)C[C@H](NC(=O)[C@H]1[C@@H]3COC[C@@H]31)C(=O)N1CCC[C@H](N1)C(=O)OCC(C)(C)C2 [RMC-7977]
[1]; model named above the shown rows, day 6 on study
  % Body Weight Change: 0.4566% and -0.939% and 3.398% and -2.7907% and 3.93% and -1.887% and 0.4444% and 1.435%
[1]; model named above the shown rows, day 9 on study
  % Body Weight Change: -1.826% and -0.939% and 3.8835% and 2.7907% and 1.747% and 0.9434% and 1.333% and 2.871%
[1]; model named above the shown rows, day 13 on study
  % Body Weight Change: 5.479% and 1.408% and 4.854% and 0.4651% and 1.747% and 0.4717% and 0.4444% and 1.914%
[1]; model named above the shown rows, day 16 on study
  % Body Weight Change: 3.653% and 0% and 5.825% and 2.326% and 3.493% and 0.4717% and 1.778% and 4.306%
[1]; model named above the shown rows, day 20 on study
  % Body Weight Change: 3.653% and 0.939% and 6.796% and -1.395% and 3.057% and 1.415% and 3.111% and 2.392%
[1]; model named above the shown rows, day 23 on study
  % Body Weight Change: 4.11% and 2.8169% and 8.738% and 1.86% and 0.4367% and 8.491% and 1.778% and 2.871%
[1]; model named above the shown rows, day 27 on study
  % Body Weight Change: 5.023% and 1.408% and 9.2233% and 0.4651% and 0.8734% and 3.302% and 2.222% and 3.349%
[1]; xenograft model named above the shown rows, day 14 on study
  % Body Weight Change: -2.8436% and 0.9302% and 4.525% and 8.0402% and 4.082%
[1]; xenograft model named above the shown rows, day 17 on study
  % Body Weight Change: -2.8436% and -0.4651% and 3.167% and 8.0402% and 1.02%
[1]; xenograft model named above the shown rows, day 21 on study
  % Body Weight Change: -2.8436% and -0.9302% and -18.0995% and 10.5528% and 0.5102%
[1]; xenograft model named above the shown rows, day 24 on study
  % Body Weight Change: -0.4739% and 0.4651% and -17.1946% and 7.538% and 1.531%
[1]; xenograft model named above the shown rows, day 28 on study
  % Body Weight Change: -2.37% and -3.721% and -14.4796% and 9.045% and 2.551%
[2]; RMC-7977 0.152 nM
  Cellular nano-BRET of PI3K⍺ (full-length) binding to KRAS: 20.3249 and 20.9149 and 20.1392 and 20.4963 and 20.2853 and 19.9497
[2]; RMC-7977 0.457 nM
  Cellular nano-BRET of PI3K⍺ (full-length) binding to KRAS: 20.3196 and 20.1783 and 20.205 and 20.0798 and 20.1662 and 19.981
[2]; RMC-7977 1.372 nM
  Cellular nano-BRET of PI3K⍺ (full-length) binding to KRAS: 20.0254 and 19.8203 and 20.0432 and 19.4426 and 18.9791 and 19.3338
[3]; RMC-7977 0.152 nM
  Cellular nano-BRET of PI3K⍺ (full-length) binding to KRAS: 18.7935 and 19.141 and 18.6344 and 19.075 and 18.2865 and 19.6937
[3]; RMC-7977 0.457 nM
  Cellular nano-BRET of PI3K⍺ (full-length) binding to KRAS: 18.3787 and 18.7426 and 18.6086 and 19.0177 and 18.2477 and 18.3552
[3]; RMC-7977 1.372 nM
  Cellular nano-BRET of PI3K⍺ (full-length) binding to KRAS: 18.3594 and 18.951 and 17.6925 and 18.4282 and 17.7403 and 18.3144
[3]; RMC-7977 4.115 nM
  Cellular nano-BRET of PI3K⍺ (full-length) binding to KRAS: 17.3789 and 18.0793 and 17.1572 and 17.557 and 16.6798 and 17.8081
[4]; RMC-7977 0.152 nM
  Cellular nano-BRET of PI3K⍺ (full-length) binding to KRAS: 20.8472 and 20.406 and 20.3368 and 20.1509 and 20.8103 and 21.278
[4]; RMC-7977 0.457 nM
  Cellular nano-BRET of PI3K⍺ (full-length) binding to KRAS: 20.6534 and 20.4767 and 20.4367 and 20.7173 and 21.2619 and 20.8705
[4]; RMC-7977 1.372 nM
  Cellular nano-BRET of PI3K⍺ (full-length) binding to KRAS: 20.6357 and 19.8073 and 19.6092 and 19.5884 and 20.4216 and 20.3031
[4]; RMC-7977 4.115 nM
  Cellular nano-BRET of PI3K⍺ (full-length) binding to KRAS: 20.2933 and 19.1064
[5]; RMC-7977 0.152 nM
  Cellular nano-BRET of RALGDS (full-length) binding to KRAS: 22.4693 and 24.1093 and 22.3942 and 23.3437 and 22.2477 and 22.7592
[5]; RMC-7977 0.457 nM
  Cellular nano-BRET of RALGDS (full-length) binding to KRAS: 21.8228 and 20.783 and 21.5914 and 21.0649 and 21.213 and 19.7556
[5]; RMC-7977 1.372 nM
  Cellular nano-BRET of RALGDS (full-length) binding to KRAS: 20.188 and 18.7475 and 20.581 and 18.7795 and 19.3575 and 17.589
[6]; RMC-7977 0.152 nM
  Cellular nano-BRET of RALGDS (full-length) binding to KRAS: 38.2361 and 38.0948 and 37.8492 and 37.9703 and 38.5475 and 38.033
[6]; RMC-7977 0.457 nM
  Cellular nano-BRET of RALGDS (full-length) binding to KRAS: 39.3924 and 37.976 and 38.1886 and 38.1477 and 38.8852 and 37.9809
[6]; RMC-7977 1.372 nM
  Cellular nano-BRET of RALGDS (full-length) binding to KRAS: 37.7456 and 36.0786 and 36.8842 and 35.5369 and 37.1465 and 36.4955
[6]; RMC-7977 4.115 nM
  Cellular nano-BRET of RALGDS (full-length) binding to KRAS: 29.6013 and 27.41
[7]; RMC-7977 0.152 nM
  Cellular nano-BRET of RALGDS (full-length) binding to KRAS: 42.1196 and 40.5417 and 38.2614 and 35.7654 and 34.5421 and 35.5545
[7]; RMC-7977 0.457 nM
  Cellular nano-BRET of RALGDS (full-length) binding to KRAS: 39.6215 and 38.4066 and 38.6628 and 35.4253 and 33.4342 and 33.8839
[7]; RMC-7977 1.372 nM
  Cellular nano-BRET of RALGDS (full-length) binding to KRAS: 37.7822 and 36.5622 and 34.5594 and 32.5564 and 30.1615 and 30.9419
[7]; RMC-7977 4.115 nM
  Cellular nano-BRET of RALGDS (full-length) binding to KRAS: 31.1063 and 32.5671 and 30.8334 and 31.1955 and 27.6508 and 27.7247
